Laboratory results reported in patent publication US6440899B1, “Cyclohexenonedioxothiochromanoyl derivatives” (BASF Aktiengesellschaft, priority 1998, dated 2002).
For at least one compound, name, drawing or mass did not settle the structure.

Tests used:
Assay in all cases: greenhouse post-emergence herbicidal test
Assay type in all cases: in vivo
Conditions in all cases: applied post-emergence, rates of application of 0.5 and 0.25 kg/ha, respectively
Chenopodium album = test system: Chenopodium album
From the text: (§1) The seeds of the test plants were sown separately for each species. For the post-emergence treatment, the test plants were first grown to a height of 3 to 15 cm, depending on the plant habit, and only then treated with the active compounds which had been suspended or emulsified in water. For this purpose, the test plants were either sown directly and grown in the same containers, or they were first grown separately as seedlings and transplanted into the test containers a few days prior to treatment. The rate of application for the post-emergence treatment was 0.5 or 0.25 kg/ha of a.s. (active substance). Depending on the species, the plants were kept at 10-25° C. or 20-35° C. The test period extended over 2 to 4 weeks. During this time, the plants were tended, and their response to the individual treatments was evaluated. Evaluation was carried out using a scale from 0 to 100. 100 means no emergence of the plants, or complete destruction of at least the aerial parts, and 0 means no damage, or normal course of growth. The plants used in the greenhouse experiments belonged to the following species: [table]

Echinochloa crus-galli = test system: Echinochloa crus-galli
From the text: as §1

Galium aparine = test system: Galium aparine
From the text: as §1

Setaria faberi = test system: Setaria faberi
From the text: as §1

Setaria viridis = test system: Setaria viridis
From the text: as §1

Sinapis alba = test system: Sinapis alba
From the text: as §1

Solanum nigrum = test system: Solanum nigrum
From the text: as §1

Measured: herbicidal activity

CC1(C)CCS(=O)(=O)c2c1ccc(C(=O)C1=C(Cl)CCCC1=O)c2Cl [Compound 3.2, 1-Chloro-2-(8-chloro-4,4-dimethyl-1,1-dioxothiochroman-7-yl)carbonylcyclohex-1-en-3-one]
very good activity: all assays above
